Experimental data from paper PMC7206116.

Amino acid sequences for entries named in this document (tags omitted).
UniProt P49407: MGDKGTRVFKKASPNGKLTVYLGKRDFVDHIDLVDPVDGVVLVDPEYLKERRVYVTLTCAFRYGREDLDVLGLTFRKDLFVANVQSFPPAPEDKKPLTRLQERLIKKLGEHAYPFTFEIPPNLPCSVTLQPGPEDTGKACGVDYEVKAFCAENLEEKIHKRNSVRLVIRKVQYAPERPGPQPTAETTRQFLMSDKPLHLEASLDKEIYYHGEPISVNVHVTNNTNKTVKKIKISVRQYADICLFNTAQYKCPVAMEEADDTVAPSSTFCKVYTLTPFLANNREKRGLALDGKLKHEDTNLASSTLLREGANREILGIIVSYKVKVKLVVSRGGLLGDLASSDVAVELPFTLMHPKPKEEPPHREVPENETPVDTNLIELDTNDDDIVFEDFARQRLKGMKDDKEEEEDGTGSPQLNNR
UniProt Q9NS91: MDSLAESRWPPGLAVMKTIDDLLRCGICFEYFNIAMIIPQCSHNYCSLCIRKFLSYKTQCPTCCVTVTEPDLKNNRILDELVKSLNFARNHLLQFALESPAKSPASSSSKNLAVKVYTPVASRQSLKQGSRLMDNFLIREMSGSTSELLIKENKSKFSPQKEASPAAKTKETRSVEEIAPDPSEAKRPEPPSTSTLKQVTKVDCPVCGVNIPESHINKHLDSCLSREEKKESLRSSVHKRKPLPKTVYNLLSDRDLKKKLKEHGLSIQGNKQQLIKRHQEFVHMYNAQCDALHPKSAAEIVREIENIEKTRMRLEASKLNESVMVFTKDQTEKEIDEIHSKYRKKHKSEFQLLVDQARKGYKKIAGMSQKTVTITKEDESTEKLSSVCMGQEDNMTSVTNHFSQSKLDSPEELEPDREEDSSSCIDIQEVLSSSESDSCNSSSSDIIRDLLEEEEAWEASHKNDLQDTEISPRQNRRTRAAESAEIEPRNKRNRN

Molecular target: βarrestin-1 (immunoprecipitated from cells for mass spectrometry) (UniProt P49407)
Test: affinity purification with mass spectrometry; βarr1 complexes immunoprecipitated from cells in response to IR, SDS-PAGE, in-gel trypsin digestion, LC-MS/MS

binding: binds
Substance: Rad18 (found with βarr1 in cells by mass spectrometry) (from UniProt Q9NS91 1-495)

Results are given in words; binding and its absence hold for the method and conditions named. Binding seen in cells or lysates may run through a third protein. Here binding means that the protein was enriched with, or labelled near, the bait; the list need not be complete.
